According to PubChem BioAssay AID2283170 (EPA ToxCast):
This list was built around the results that the source calls inconclusive (neither active nor inactive); the mix of calls is not that of the screen. Potencies beside an inconclusive call are fits to weak or partial responses and may not hold up. The source made the active and inactive calls. How the source made its calls: active means hit-call score of the fitted dose curve at least 0.9, where 1 is the maximum; inconclusive means response in the unintended direction; inactive means score below 0.9.

Amino acid sequences for entries named in this document (tags omitted). A change or cut given only in a name is not applied to a line headed by its entry.
UniProt P06239: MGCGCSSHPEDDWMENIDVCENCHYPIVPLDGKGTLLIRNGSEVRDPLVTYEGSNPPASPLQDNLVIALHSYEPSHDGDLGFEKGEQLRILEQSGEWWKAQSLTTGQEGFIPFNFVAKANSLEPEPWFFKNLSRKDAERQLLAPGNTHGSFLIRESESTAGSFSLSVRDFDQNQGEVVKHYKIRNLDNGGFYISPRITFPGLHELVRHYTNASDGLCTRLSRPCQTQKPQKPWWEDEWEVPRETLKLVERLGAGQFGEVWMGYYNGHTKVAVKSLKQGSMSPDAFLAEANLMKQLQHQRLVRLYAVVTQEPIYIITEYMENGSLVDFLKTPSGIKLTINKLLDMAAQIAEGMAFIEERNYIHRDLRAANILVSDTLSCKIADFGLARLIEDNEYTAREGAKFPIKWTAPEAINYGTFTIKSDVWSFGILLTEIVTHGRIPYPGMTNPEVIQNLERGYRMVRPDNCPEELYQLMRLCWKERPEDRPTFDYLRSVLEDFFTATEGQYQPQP

Molecular target: human Lymphocyte-cell Factor Kinase (Lck), LCK (gene 3932) (UniProt P06239)
Assay: NVS_ENZ_hLck: NovaScreen (NVS) Enzymatic Assay for human Lymphocyte-cell Factor Kinase (Lck)
Procedure: NVS_ENZ_hLck is a biochemical, single-readout assay that uses extracted gene-proteins in a cell-free assay. Measurements were taken 1 hour after chemical dosing in a 384-well plate.NVS_ENZ_hLck is one of one assay component(s) measured or calculated from the NVS_ENZ_hLck assay. It is designed to make measurements of enzyme activity, a form of enzyme reporter, as detected with fluorescence intensity signals by Fluorescence and electrophoretic mobility shift technology.Data from the assay component NVS_ENZ_hLck was analyzed into 1 assay endpoint. This assay endpoint, NVS_ENZ_hLck, was analyzed in the positive analysis fitting direction relative to DMSO as the negative control and baseline of activity. Using a type of enzyme reporter, loss-of-signal activity can be used to understand changes in the enzymatic activity as they relate to the gene LCK. Furthermore, this assay endpoint can be referred to as a primary readout, because this assay has produced […] where this one serves a enzymatic activity function. To generalize the intended target to other relatable targets, this assay endpoint is annotated to the kinase intended target family, where the subfamily is non-receptor tyrosine kinase. […]

SMILES | outcome | AC50
c1ccc2[nH]c(-c3cscn3)nc2c1 | inactive | –
S=C(S)NCCNC(=S)S.[Mn+2].[S-]C([S-])=NCCN=C([S-])[S-].[Zn+2] | – | inconclusive: 30.8 µM
